From US20130149309A1
These are yes or no findings as the source states them, for the method shown. Binding seen in cells or lysates may run through a third protein. Some entries that bind do so weakly or less than the wild type. Tags and fused reporters may be left off the sequences shown.

Legend:
[1] = target: T1, amyloid precursor protein C-terminal fragment (APP-CTF), P05067; assay: co-immunoprecipitation from HEK293 cells co-expressing NotchΔE-myc, APP-CTF and gSAP-16K-HA, both directions; settings: remark: other sources report otherwise
[2] = target: T1, amyloid precursor protein C-terminal …; assay: co-immunoprecipitation, HEK293 cells; settings: remark: other sources report otherwise

binding [1]: binds | binding [2]: binds
B1: gSAP-16K-HA (16 KDa C-terminal fragment, amino acid sequence 733-854, of gSAP with a C-terminal HA tag), A4D1B5 733-854 (protein, human, UniProt A4D1B5 733-854, looked up, not shown: small tags and cut ends)
chain: RLMKDLDNTEKNEKLKFSIIVRLPPLIGQKICRLWDHPMSSNIISRNHVTRLLQNYKKQPRNSMINKSSFSVEFLPLNYFIEILTDIESSNQALYPFEGHDNVDAEFVEEAALKHTAMLLGL
